Measured values taken from PMC12187939.
These are yes or no findings as the source states them, for the method shown. In cells and extracts the contact can be indirect. A yes stands for co-enrichment or nearness to the bait. Other partners may have been found. Where a sequence is shown, tags or fusion partners need not be part of it.

Protein sequences, listed by entry. Tags and fused reporters are not part of them.
UniProt Q92793: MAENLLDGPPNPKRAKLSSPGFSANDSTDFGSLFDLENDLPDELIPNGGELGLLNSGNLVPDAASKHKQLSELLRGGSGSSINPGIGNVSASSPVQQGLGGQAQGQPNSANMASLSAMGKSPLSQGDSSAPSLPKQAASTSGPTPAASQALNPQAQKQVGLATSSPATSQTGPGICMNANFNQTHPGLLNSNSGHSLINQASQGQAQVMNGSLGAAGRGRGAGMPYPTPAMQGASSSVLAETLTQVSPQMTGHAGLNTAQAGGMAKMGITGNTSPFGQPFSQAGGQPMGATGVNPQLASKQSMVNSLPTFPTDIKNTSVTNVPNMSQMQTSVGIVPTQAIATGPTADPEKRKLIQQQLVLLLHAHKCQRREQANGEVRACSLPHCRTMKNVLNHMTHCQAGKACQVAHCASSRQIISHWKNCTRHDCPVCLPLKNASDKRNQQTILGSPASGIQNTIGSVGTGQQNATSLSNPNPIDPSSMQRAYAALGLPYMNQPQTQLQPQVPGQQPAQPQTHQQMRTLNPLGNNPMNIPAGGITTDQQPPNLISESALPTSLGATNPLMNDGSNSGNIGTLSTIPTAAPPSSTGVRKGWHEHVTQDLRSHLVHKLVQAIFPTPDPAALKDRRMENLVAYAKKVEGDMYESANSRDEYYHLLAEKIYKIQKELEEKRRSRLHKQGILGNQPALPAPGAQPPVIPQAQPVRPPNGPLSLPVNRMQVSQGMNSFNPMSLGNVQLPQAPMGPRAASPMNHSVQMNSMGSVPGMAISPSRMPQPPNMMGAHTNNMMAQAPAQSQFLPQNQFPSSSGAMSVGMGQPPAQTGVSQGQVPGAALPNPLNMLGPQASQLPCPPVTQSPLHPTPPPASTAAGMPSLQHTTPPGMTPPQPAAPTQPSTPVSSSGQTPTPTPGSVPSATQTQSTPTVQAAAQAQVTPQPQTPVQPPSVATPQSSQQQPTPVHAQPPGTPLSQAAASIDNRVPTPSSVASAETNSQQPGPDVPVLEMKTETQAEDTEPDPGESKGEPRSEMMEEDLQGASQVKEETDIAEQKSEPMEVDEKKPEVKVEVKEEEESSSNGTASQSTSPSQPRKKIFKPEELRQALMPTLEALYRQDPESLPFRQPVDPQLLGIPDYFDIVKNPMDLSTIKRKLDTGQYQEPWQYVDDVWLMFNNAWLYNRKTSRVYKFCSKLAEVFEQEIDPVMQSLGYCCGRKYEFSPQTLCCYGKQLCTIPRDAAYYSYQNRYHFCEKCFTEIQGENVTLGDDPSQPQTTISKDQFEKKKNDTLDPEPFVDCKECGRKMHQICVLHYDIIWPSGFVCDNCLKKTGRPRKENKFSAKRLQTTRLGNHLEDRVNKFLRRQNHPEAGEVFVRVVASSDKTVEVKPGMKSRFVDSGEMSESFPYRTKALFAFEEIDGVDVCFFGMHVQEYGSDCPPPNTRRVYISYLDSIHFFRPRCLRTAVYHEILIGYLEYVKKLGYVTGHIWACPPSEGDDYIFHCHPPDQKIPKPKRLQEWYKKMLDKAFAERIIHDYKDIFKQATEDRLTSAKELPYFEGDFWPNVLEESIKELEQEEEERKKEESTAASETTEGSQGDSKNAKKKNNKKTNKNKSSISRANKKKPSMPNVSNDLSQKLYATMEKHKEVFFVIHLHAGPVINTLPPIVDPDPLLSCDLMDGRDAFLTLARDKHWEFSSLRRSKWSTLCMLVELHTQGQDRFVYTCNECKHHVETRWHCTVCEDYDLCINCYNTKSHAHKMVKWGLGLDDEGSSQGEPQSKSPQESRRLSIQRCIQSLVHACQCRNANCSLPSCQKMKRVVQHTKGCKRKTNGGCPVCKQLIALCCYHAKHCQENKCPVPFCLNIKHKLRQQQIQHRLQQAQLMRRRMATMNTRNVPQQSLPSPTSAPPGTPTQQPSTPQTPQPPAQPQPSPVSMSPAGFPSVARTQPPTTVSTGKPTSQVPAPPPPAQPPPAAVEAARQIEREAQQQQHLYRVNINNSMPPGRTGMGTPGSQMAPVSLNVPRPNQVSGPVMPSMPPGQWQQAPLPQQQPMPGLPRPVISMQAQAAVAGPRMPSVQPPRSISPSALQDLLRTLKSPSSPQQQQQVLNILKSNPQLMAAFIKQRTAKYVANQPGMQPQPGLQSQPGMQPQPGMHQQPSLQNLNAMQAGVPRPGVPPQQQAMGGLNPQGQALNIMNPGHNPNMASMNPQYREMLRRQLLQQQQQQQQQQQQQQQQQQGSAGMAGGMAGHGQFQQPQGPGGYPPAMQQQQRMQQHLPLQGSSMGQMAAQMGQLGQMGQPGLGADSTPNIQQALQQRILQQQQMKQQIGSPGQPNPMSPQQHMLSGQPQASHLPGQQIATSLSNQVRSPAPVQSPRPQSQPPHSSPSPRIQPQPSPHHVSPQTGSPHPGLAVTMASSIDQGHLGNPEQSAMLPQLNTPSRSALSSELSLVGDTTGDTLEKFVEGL
UniProt Q9Y297: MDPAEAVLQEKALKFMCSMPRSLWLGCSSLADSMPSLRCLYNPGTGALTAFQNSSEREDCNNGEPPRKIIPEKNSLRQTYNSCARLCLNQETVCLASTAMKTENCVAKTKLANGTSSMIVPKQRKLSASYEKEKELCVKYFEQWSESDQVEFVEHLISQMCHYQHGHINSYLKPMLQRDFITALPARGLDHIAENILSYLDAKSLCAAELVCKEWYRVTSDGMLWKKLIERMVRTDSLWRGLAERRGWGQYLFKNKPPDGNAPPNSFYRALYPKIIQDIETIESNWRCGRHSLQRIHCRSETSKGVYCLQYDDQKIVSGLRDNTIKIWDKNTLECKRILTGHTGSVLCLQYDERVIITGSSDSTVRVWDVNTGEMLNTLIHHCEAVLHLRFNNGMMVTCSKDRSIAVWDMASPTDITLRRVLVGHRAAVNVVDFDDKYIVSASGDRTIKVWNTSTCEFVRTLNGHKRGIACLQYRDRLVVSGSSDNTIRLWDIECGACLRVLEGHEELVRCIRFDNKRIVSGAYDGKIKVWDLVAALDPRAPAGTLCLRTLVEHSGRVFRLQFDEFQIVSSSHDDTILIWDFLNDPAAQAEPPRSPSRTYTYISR
UniProt Q9ULX9: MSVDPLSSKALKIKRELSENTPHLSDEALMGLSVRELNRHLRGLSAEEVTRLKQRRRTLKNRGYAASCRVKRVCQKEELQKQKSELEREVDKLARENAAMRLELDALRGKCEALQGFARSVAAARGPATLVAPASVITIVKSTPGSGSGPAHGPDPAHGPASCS
UniProt O60675: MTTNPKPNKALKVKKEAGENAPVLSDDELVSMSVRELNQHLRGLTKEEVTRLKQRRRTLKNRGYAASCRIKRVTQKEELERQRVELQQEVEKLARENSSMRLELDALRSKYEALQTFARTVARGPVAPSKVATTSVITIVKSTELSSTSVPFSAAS
UniProt Q969G3: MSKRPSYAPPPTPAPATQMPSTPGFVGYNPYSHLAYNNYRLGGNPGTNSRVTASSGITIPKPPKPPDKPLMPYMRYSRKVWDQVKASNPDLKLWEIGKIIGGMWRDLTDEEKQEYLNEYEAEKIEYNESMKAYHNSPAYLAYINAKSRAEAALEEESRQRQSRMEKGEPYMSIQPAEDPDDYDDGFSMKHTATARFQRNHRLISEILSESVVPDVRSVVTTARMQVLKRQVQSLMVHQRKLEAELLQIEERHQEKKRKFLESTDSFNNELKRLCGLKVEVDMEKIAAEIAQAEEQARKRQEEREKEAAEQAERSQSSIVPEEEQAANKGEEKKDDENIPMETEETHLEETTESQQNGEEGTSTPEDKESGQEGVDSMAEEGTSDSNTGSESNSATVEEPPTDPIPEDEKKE
UniProt Q09472: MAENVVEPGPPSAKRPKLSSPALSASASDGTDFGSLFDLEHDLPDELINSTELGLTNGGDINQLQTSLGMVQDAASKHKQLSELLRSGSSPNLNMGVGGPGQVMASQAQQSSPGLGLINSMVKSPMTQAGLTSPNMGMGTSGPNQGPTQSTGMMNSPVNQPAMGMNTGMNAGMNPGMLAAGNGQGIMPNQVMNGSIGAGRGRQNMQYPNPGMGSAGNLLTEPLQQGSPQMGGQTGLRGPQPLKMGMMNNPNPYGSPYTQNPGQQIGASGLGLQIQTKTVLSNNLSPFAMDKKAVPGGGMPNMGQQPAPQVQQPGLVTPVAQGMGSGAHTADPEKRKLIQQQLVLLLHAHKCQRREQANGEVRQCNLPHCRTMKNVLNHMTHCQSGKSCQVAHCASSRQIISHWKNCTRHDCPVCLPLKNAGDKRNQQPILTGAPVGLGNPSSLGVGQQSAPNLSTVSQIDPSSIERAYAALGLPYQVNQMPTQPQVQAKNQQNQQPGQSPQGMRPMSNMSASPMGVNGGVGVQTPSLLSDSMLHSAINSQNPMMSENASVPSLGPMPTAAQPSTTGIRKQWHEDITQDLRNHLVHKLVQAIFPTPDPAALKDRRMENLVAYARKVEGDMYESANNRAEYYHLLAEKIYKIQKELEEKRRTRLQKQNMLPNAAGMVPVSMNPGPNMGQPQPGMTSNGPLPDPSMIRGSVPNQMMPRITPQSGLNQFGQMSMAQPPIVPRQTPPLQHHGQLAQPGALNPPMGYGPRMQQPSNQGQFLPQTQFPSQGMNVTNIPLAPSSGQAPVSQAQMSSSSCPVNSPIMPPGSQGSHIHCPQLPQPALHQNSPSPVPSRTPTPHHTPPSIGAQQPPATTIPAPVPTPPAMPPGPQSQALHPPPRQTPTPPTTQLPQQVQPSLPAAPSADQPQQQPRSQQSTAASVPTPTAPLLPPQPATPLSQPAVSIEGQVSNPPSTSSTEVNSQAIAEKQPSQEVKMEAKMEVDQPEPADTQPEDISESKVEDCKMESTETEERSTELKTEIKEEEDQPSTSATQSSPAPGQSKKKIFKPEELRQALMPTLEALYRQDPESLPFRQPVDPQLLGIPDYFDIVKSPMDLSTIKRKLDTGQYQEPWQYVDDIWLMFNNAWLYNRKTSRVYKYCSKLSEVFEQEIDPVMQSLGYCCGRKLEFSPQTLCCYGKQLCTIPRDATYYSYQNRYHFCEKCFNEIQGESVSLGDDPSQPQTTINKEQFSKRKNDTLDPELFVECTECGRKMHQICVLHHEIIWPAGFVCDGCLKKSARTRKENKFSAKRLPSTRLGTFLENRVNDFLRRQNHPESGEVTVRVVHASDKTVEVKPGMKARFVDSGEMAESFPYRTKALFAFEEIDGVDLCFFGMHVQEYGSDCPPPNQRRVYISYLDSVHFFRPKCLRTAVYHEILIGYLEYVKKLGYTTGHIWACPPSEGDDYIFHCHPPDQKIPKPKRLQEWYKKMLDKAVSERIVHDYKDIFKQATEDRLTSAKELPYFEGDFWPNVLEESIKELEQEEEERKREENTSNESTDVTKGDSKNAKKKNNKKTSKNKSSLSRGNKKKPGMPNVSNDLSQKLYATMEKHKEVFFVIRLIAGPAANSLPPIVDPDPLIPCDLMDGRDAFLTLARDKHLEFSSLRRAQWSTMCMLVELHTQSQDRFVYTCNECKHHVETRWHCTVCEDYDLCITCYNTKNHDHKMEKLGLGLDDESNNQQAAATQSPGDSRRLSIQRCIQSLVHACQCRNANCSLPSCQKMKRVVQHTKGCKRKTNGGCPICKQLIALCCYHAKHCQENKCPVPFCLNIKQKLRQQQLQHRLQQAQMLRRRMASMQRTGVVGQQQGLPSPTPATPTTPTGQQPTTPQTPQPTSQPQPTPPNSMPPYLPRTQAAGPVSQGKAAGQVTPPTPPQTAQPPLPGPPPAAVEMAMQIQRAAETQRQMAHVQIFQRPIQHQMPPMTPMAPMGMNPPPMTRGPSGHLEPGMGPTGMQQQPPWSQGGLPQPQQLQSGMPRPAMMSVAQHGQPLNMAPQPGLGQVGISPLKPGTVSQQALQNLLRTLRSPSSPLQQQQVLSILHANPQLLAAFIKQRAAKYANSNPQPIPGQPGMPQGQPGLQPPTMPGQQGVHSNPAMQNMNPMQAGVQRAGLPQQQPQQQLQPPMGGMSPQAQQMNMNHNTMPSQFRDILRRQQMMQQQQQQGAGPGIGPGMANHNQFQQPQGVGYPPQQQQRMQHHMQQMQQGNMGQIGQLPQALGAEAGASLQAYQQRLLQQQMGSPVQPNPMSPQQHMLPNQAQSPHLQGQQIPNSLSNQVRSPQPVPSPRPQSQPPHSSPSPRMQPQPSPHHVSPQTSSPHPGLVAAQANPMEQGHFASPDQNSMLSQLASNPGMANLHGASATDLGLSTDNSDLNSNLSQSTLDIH

target: T1, FLAG-tagged WT NRF2, stably expressed in A549 (TRE3G-driven, dox-induced) (UniProt Q16236); assay: affinity purification with mass spectrometry; FLAG IP (anti-FLAG M2 magnetic beads, overnight at 4 °C) from nuclear lysates of A549 cells stably expressing TRE3G-driven Renilla luciferase, WT NRF2 or Neh4/5mut, 24 h after doxycycline; 8 mg lysate per IP; on-bead digestion, TMT; four replicates
T1 sequence: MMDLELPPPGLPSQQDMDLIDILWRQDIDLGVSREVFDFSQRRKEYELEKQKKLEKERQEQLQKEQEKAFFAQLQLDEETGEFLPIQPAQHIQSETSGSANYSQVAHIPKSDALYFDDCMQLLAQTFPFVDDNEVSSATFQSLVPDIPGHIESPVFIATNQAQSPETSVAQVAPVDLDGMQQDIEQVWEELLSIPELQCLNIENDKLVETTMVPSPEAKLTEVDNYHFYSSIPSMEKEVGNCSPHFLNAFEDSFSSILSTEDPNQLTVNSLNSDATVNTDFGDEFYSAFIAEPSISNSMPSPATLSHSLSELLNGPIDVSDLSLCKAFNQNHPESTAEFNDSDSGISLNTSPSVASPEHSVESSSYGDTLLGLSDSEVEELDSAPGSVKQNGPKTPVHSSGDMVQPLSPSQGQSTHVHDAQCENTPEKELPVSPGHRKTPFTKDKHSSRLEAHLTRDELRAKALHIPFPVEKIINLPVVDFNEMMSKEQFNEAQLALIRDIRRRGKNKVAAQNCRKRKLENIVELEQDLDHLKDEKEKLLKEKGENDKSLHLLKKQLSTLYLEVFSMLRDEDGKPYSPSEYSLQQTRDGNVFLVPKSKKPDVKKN

Substance | binding
CBP, A549 nuclear extract (from UniProt Q92793 1-2442) | binds
FBXW1A (bTrCP-1), A549 nuclear extract (from UniProt Q9Y297 1-605) | binds
MAFF (sMAF protein), A549 nuclear extract (from UniProt Q9ULX9 1-164) | binds
MAFK (sMAF protein), A549 nuclear extract (from UniProt O60675 1-156) | binds
SMARCE1, A549 nuclear extract (from UniProt Q969G3 1-411) | binds
p300, A549 nuclear extract (from UniProt Q09472 1-2414) | binds
